No constants are given. Whether binding was seen depends on the method and setting. Binding seen in cells or lysates may run through a third protein. Here binding means that the protein was enriched with, or labelled near, the bait; the list need not be complete. Sequences can lack the tags named with a protein.
B1: ERC1 (protein, UniProt Q99MI1 1-1120)
chain: MYGSARSVGKVEPSSQSPGRSPRLPRSPRLGHRRTNSTGGSSGNSVGGGSGKTLSMENIQSLNAAYATSGPMYLSDHENVGAETPKSTMTLGRSGGRLPYGVRMTAMGSSPNIASSGVASDTIAFGEHHLPPVSMASTVPHSLRQARDNTIMDLQTQLKEVLRENDLLRKDVEVKESKLSSSMNSIKTFWSPELKKERALRKDEASKITIWKEQYRVVQEENQHMQMTIQALQDELRIQRDLNQLFQQDSSSRTGEPCVAELTEENFQRLHAEHERQAKELFLLRKTLEEMELRIETQKQTLNARDESIKKLLEMLQSKGLSAKATEEDHERTRRLAEAEMHVHHLESLLEQKEKENNMLREEMHRRFENAPDSAKTKALQTVIEMKDSKISSMERGLRDLEEEIQMLKSNGALSSEEREEEMKQMEVYRSHSKFMKNKVEQLKEELSSKDAQGEELKKRAAGLQSEIGQVKQELSRKDTELLALQTKLETLTNQFSDSKQHIEVLKESLTAKEQRAAILQTEVDALRLRLEEKETMLNKKTKQIQDMAEEKGTQAGEIHDLKDMLDVKERKVNVLQKKIENLQEQLRDKEKQMSSLKERVKSLQADTTNTDTALTTLEEALADKERTIERLKEQRDRDEREKQEEIDTYKKDLKDLREKVSLLQGDLSEKEASLLDIKEHASSLASSGLKKDSRLKTLEIALEQKKEECLKMESQLKKAHEATLEARASPEMSDRIQQLEREISRYKDESSKAQTEVDRLLEILKEVENEKNDKDKKIAELESLTSRQVKDQNKKVANLKHKEQVEKKKSAQMLEEARRREDSLSDSSQQLQDSLRKKDDRIEELEEALRESVQITAEREMVLAQEESARTNAEKQVEELLMAMEKVKQELESMKAKLSSTQQSLAEKETHLTNLRAERRKHLEEVLEMKQEALLAAISEKDANIALLELSSSKKKTQEEVAALKREKDRLVQQLKQQTQNRMKLMADNYEDDHFRSSRSNQTNHKPSPDQIIQPLLELDQNRSKLKLYIGHLTALCHDRDPLILRGLTPPASYNADGEQAAWENELQQMTQEQLQNELEKVEGDNAELQEFANTILQQIADHCPDILEQVVNALEESS
B2: ERC2 (protein, UniProt Q6PH08 1-957)
chain: MYGSARTISNLEGSPSRSPRLPRSPRLGHRRTSSGGGGGTGKTLSMENIQSLNAAYATSGPMYLSDHEGVASTTYPKGTMTLGRATNRAVYGGRVTAMGSSPNIASAGLSHTDVLSYTDQHGGLSGSSHHHHHQVPSMLRQVRDSTMLDLQAQLKELQRENDLLRKELDIKDSKLGSSMNSIKTFWSPELKKERVLRKEEAARMSVLKEQMRVSHEENQHLQLTIQALQDELRTQRDLNHLLQQESGNRGAEHFTIELTEENFRRLQAEHDRQAKELFLLRKTLEEMELRIETQKQTLNARDESIKKLLEMLQSKGLPSKSLEDDNERTRRMAEAESQVSHLEVILDQKEKENIHLREELHRRSQLQPEPAKTKALQTVIEMKDTKIASLERNIRDLEDEVQMLKANGVLNTEDREEEIKQIEVYKSHSKFMKTKIDQLKQELSKKESELLALQTKLETLSNQNSDCKQHIEVLKESLTAKEQRAAILQTEVDALRLRLEEKESFLNKKTKQLQDLTEEKGTLAGEIRDMKDMLEVKERKINVLQKKIENLQEQLRDKDKQLTNLKDRVKSLQTDSSNTDTALATLEEALSEKERIIERLKEQRERDDRERLEEIESFRKENKDLKEKVNALQAELTEKESSLIDLKEHASSLASAGLKRDSKLKSLEIAIEQKKEECNKLEAQLKKAHNIEDDSRMNPEFADRLKQLDKEASYYRDECGKAQAEVDRLLEILKEVENEKNDKDKKIAELESLTLRHMKDQNKKVANLKYNQQLEKKKNAQLLEEVRRREDSMVDNSQHLQIEELMNALEKTRQELDATKARLASTQQSLAEKEAHLANLRIERRKQLEEILEMKQEALLAAISEKDANIALLELSASKKKKTQEEVMALKREKDRLVHQLKQQTQNRMKLMADNYDEDHHHYHHHHHHHHHRSPGRSQHSNHRPSPDQDDEEGIWA
B3: RILPL1 (protein, UniProt Q9JJC6 1-406)
chain: MEEPLGSPPAALSALEKNVAELTVMDVYDIASLVGHEFERVIDQHGCESIARLMPKVVRVLEILEVLVSRHHVAPELDELRLELDRLRVERMDRIEKERKHQKELELVEDVWRGEAQDLLSQIAQLQEENKQLMTNLNHKDVGFSEEEFQKQEGMSERERQVMKRLKEVVDKQRDELRAKDRELGLKNEDVEALQQQQTRLMKINHDLRHRVTVVEAQGKALIEQKVELEADLQTKEQEMGSLRAELGKLRERLQGEHSQNGEEEEAEIQPQPDGEESISDAEKAALDLKDPNRPRFTLQELRDVLHERNELKSKVFLLQEELAYYKSEEIEEENRIPQPPPITHPRTSPQPESGIKRLFSFFSRDKKRLANTQRPTHIHESFGQWAITQRDDGYTEQGQEALQHL
B4: RILPL2 (protein, UniProt Q99LE1 1-197)
chain: MEDHPVREEEDGEEDEGALAKSPLQLTTDDVYDISYVVGRELMALGSDPRVTRLQFKIVRVMEMLETLVNEGSLAVEELRMERDNLKQEVEGLRKAGVSGAQVNLGPDKMVVDLTDPNRPRFTLQELREVLQERNKLKSQLLLVQEELQCYRSGLLPPRETPGGRREKDAVVAMGNGEKEERTIMKKLFSFRSGKHT

Legend:
[1] = target: T1, Flag-RAB3A (residues 18-190, Q81L), unphosphorylated (UniProt P20336); test: affinity purification with mass spectrometry; phospho-FLAG-RAB3A or FLAG-RAB3A bound to anti-DYKDDDDK magnetic agarose as bait; incubated 1 h at 4 °C with whole brain lysate of mice given MLi-2 (30 mg/kg, 2 h); washed twice with high-salt lysis buffer (500 mM NaCl) and then regular lysis buffer (0.5% NP40, 5 mM MgCl2); DIA MS on Orbitrap Astral, 6 replicates per condition; only the target purified
T1 sequence: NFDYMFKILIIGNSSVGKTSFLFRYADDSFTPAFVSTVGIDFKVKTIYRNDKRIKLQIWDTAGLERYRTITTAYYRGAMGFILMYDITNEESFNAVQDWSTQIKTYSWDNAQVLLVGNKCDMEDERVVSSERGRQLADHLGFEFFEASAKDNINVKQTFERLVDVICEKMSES

[2] = target: T2, phospho-FLAG-RAB3A (residues 18-190, Q81L, pT86) (UniProt P20336); test: as above
T2 sequence (chain, phosphothreonine at 86 (Thr86, by MST3 kinase, site confirmed by MS)): T1 sequence

Row | Molecule | binding [1] | binding [2]
1 | UNC13 (MUNC13) (mouse (endogenous in brain)) | binds | –
2 | B1 | binds | –
3 | B2 | binds | –
4 | B3 | – | binds
5 | B4 | – | binds

From paper PMC13522591
